No constants are given. Whether binding was seen depends on the method and setting. Binding seen in cells or lysates may run through a third protein. Some entries that bind do so weakly or less than the wild type. For some of these results: Where a sequence is shown, tags or fusion partners need not be part of it.
Key:
[1] = target: T1, PAR-5, the C. elegans 14-3-3 protein orthologue (C. elegans) (UniProt P41932); assay: co-IP; lysates of control daf-2 and daf-2; aak(0) dauer larvae (lysis buffer 50mM Hepes pH7.5, 150mM NaCl, 10% glycerol, 1% Triton X-100, 1.5mM MgCl2, 1mM EDTA); immunoprecipitation with anti-PAR-5 or anti-ATGL-1 antibody and Protein-A agarose, immunoblot with anti-ATGL-1 or anti-PAR-5; reciprocal
T1 sequence: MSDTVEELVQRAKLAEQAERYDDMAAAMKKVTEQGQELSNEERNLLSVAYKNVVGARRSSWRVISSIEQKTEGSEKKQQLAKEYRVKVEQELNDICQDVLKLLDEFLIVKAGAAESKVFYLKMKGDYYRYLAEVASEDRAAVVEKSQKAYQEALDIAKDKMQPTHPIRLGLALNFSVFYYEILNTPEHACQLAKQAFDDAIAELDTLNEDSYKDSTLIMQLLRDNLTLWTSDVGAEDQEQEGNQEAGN

[2] = target: T2, adipose triglyceride lipase (ATGL-1), endogenous C. elegans protein (C. elegans) (UniProt Q11186); assay: as above
T2 sequence: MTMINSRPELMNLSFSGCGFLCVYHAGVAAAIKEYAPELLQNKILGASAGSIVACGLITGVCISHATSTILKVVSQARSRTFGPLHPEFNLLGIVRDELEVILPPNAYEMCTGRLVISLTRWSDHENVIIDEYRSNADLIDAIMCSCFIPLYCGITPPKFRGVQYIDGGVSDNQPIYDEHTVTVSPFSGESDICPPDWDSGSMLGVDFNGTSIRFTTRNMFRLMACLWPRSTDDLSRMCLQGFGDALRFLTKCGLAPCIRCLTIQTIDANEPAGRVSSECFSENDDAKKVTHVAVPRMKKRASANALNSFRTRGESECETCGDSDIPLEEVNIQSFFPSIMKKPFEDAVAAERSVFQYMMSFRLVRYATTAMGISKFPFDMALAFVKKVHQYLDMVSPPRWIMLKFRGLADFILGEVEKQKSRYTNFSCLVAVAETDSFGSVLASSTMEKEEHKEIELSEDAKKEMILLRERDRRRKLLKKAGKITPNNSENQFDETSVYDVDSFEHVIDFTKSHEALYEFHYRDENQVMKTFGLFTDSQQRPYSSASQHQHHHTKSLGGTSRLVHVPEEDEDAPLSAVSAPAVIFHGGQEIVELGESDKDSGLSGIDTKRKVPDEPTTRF

[3] = target: T3, ATGL-1::GFP (wild type ATGL-1 tagged with GFP, transgene) (C. elegans) (UniProt Q11186); assay: co-IP; lysates of daf-2 dauer larvae carrying ATGL-1::GFP or ATGL-1(S303A)::GFP; immunoprecipitation with a GFP antibody, immunoblot with anti-PAR-5 antibody
T3 sequence: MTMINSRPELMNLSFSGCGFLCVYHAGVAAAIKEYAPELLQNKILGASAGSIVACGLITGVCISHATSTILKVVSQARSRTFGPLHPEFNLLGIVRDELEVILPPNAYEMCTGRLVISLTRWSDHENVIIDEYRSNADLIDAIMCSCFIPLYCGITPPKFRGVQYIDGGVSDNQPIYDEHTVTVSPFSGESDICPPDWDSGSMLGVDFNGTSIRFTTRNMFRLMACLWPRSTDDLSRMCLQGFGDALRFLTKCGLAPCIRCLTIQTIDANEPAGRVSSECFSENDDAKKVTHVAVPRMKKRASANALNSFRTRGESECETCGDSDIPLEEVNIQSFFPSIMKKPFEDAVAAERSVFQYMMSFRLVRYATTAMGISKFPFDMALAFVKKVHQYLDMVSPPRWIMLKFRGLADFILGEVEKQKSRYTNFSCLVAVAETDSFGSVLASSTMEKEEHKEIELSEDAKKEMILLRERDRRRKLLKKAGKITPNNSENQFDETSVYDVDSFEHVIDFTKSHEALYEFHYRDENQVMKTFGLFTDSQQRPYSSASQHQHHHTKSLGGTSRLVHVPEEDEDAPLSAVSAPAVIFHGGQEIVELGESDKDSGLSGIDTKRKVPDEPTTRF

[4] = target: T4, ATGL-1(S303A)::GFP (non-phosphorylatable ATGL-1 variant tagged with GFP, transgene) (C. elegans) (UniProt Q11186); assay: as above
T4 sequence: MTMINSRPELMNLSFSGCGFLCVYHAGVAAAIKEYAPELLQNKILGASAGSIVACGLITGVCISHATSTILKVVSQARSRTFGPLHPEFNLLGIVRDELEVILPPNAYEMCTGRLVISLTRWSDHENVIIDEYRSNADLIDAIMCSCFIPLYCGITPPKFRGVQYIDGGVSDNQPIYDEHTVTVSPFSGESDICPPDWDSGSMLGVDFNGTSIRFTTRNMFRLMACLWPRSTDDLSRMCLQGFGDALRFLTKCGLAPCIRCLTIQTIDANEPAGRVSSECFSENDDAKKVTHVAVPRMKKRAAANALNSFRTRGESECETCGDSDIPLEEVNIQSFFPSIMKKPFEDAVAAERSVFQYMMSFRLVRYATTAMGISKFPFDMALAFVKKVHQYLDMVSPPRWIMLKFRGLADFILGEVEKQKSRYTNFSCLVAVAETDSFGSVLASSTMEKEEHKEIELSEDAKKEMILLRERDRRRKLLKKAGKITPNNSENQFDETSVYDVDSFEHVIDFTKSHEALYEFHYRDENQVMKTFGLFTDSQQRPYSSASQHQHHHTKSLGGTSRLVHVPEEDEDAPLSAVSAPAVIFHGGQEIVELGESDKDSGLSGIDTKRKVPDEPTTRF

Row | Binder | binding [1] | binding [2] | binding [3] | binding [4]
1 | adipose triglyceride lipase (ATGL-1), endogenous C. elegans protein (enzyme, UniProt Q11186 1-621) MTMINSRPELMNLSFSGCGFLCVYHAGVAAAIKEYAPELLQNKILGASAGSIVACGLITGVCISHATSTILKVVSQARSRTFGPLHPEFNLLGIVRDELEVILPPNAYEMCTGRLVISLTRWSDHENVIIDEYRSNADLIDAIMCSCFIPLYCGITPPKFRGVQYIDGGVSDNQPIYDEHTVTVSPFSGESDICPPDWDSGSMLGVDFNGTSIRFTTRNMFRLMACLWPRSTDDLSRMCLQGFGDALRFLTKCGLAPCIRCLTIQTIDANEPAGRVSSECFSENDDAKKVTHVAVPRMKKRASANALNSFRTRGESECETCGDSDIPLEEVNIQSFFPSIMKKPFEDAVAAERSVFQYMMSFRLVRYATTAMGISKFPFDMALAFVKKVHQYLDMVSPPRWIMLKFRGLADFILGEVEKQKSRYTNFSCLVAVAETDSFGSVLASSTMEKEEHKEIELSEDAKKEMILLRERDRRRKLLKKAGKITPNNSENQFDETSVYDVDSFEHVIDFTKSHEALYEFHYRDENQVMKTFGLFTDSQQRPYSSASQHQHHHTKSLGGTSRLVHVPEEDEDAPLSAVSAPAVIFHGGQEIVELGESDKDSGLSGIDTKRKVPDEPTTRF | binds |  |  | 
2 | PAR-5, the C. elegans 14-3-3 protein orthologue (protein, UniProt P41932 1-248) MSDTVEELVQRAKLAEQAERYDDMAAAMKKVTEQGQELSNEERNLLSVAYKNVVGARRSSWRVISSIEQKTEGSEKKQQLAKEYRVKVEQELNDICQDVLKLLDEFLIVKAGAAESKVFYLKMKGDYYRYLAEVASEDRAAVVEKSQKAYQEALDIAKDKMQPTHPIRLGLALNFSVFYYEILNTPEHACQLAKQAFDDAIAELDTLNEDSYKDSTLIMQLLRDNLTLWTSDVGAEDQEQEGNQEAGN |  | binds | binds | binds
